{"source": "PubChem BioAssay AID1508600", "about": "(Functional Genomics Laboratory (NCATS/FGL), 2020)", "note": "Out of some 53,000 sequences screened, about 3,700 (7%) were called active.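 The calls were made as follows: active = gene knockdowns whose robust z-score for IL-1 alpha signal is at least 2 or at most -2, so actives lie on both sides; inactive = the rest.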 Some of the results follow.", "data": [{"assay": "Components of the Cytosolic LPS Sensing Pathway: Gene Identification via Genome-wide siRNA Screen;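 also: robust z of the log signal after scaling to non-targeting control siRNA wells of the plate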", "details": "RAW264.7 macrophages, IL-1a HTRF, actives lie on both sides, screened at 100 nM (by protocol), cells primed 5 h with Pam3CSK4 first", "in_short": "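Using IL-1a HTRF as read-out, the screen measured release from RAW264.7 cells after 48h siRNA knockdown (100 nM), 5 h Pam3CSK4 priming and 24 h cytosolic LipidA. Values were expressed relative to negative-control wells as robust z-scores.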", "values": [{"sequence": "CCGUUGAUAUCCACAUGAATT against Plod3", "z-score": "inactive: 1.97"}, {"sequence": "GGCUCUUGUGGUUUUUGUCTT against Olfr213", "z-score": "inactive: -0.221"}, {"sequence": "GCUGUAUCUGUGUCAGAACTT against 1700001O22Rik", "z-score": "inactive: -0.367"}, {"sequence": "GCCAUUAGCCUGCUACCUGTT against Ttc36", "z-score": "inactive: 0.193"}, {"sequence": "GGCGGAUGAACAAAGUUGGTT against Polr1e", "z-score": "inactive: 0.0863"}, {"sequence": "GGAAAAAGAGAAAAAUCGCTT against Slc16a2", "z-score": "inactive: -0.394"}, {"sequence": "GUCGAUCAACUCUAGGCUCTT against Rpl30", "z-score": "inactive: 0.487"}, {"sequence": "GGAGGUGAUAAAUAGUGUCTT against Ubox5", "z-score": "inactive: -0.623"}, {"sequence": "CCAGUUCGAAGACCGUAUUTT against Tceal1", "z-score": "inactive: 0.517"}, {"sequence": "GGUACUUGGUUUGAGUGGATT against Serpinb8", "z-score": "inactive: 0.419"}, {"sequence": "GGUGCCACAGUUUACAUUATT against Dhrs1", "z-score": "inactive: -0.329"}, {"sequence": "GGACCGAUUCCACUUCAAUTT against Crygd", "z-score": "inactive: 1.46"}, {"sequence": "GGGUUACCAACGACAGUGGTT against Cldn11", "z-score": "inactive: -0.027"}, {"sequence": "GCUUUAUUAACCCAUCAAATT against Wdr78", "z-score": "inactive: -0.136"}, {"sequence": "GGUCUGGUGGAGUUGAGAATT against Ccdc80", "z-score": "inactive: -0.617"}, {"sequence": "GGCACAGAAAUUAUGUUCUTT against Slc25a35", "z-score": "inactive: 1.51"}, {"sequence": "GCAGUCACCUUCAAAAAAATT against Zfp960", "z-score": "inactive: 1.08"}, {"sequence": "GGAUGUGUCUCACUUCUUGTT against Th", "z-score": "inactive: -1.5"}, {"sequence": "GGUCAUUCAGAUUCUCGGATT against Itpa", "z-score": "inactive: 0.0974"}, {"sequence": "GGAAUUUGUCUCCUGGCCUTT against Olfr1120", "z-score": "inactive: 1.68"}, {"sequence": "GGAGGAAUUCUUGAAGAUUTT against Ptpn7", "z-score": "inactive: 0.198"}, {"sequence": "GCUUGCUGACCUGAAGUGATT against Krt17", "z-score": "inactive: 0.262"}, {"sequence": "GGGAAAAAAAAAAAUCACCTT against Syne3", "z-score": "inactive: -0.254"}, {"sequence": "GGUCUUGGUGUAUAACAACTT against Polr1c", "z-score": "inactive: -0.355"}, {"sequence": "CGUAGCUGCCGUCAACUCUTT against Slc2a5", "z-score": "inactive: -0.753"}, {"sequence": "GCAGUUCAACACUCAACUUTT against Grpr", "z-score": "inactive: -0.905"}, {"sequence": "GGACAUACAGUGAUGAGGCTT against Rab11fip5", "z-score": "inactive: 0.246"}, {"sequence": "GGUGUGUUCCCAACUGGUGTT against Olfr1124", "z-score": "active: 2.04"}, {"sequence": "GCUCUGAUCAUUUGACUUGTT against Ovca2", "z-score": "inactive: 0.128"}, {"sequence": "CCAAAGCUGAAGAUUUUGGTT against Man1b1", "z-score": "inactive: 0.834"}, {"sequence": "GGCAAAACUGACGUAAACUTT against Gpx4", "z-score": "inactive: 1.09"}, {"sequence": "GUUGCCUAUCAUUUGUAGATT against Olfr1052", "z-score": "inactive: 0.76"}, {"sequence": "GGCAGACAGUCUAACAGAUTT against Krt6a", "z-score": "inactive: 0.283"}, {"sequence": "GGCAAGGACUUCAACAAGATT against Proser2", "z-score": "inactive: -0.495"}, {"sequence": "GGCCAUAUCGUUCACUCACTT against Slc18a3", "z-score": "inactive: 1.04"}, {"sequence": "GGUGGUGAUAUUUAUUGUGTT against Olfr1", "z-score": "inactive: 1.22"}, {"sequence": "GGAAAAGAAAUGAUGGAGUTT against Dnajc9", "z-score": "inactive: 0.176"}, {"sequence": "GGCCUCAUCAUGUGUUCAATT against App", "z-score": "inactive: -1.24"}, {"sequence": "CGUUAAGAGUCCAAGUGAATT against Nectin4", "z-score": "inactive: -0.016"}, {"sequence": "GGAGAGGUUUAGUAAUUACTT against Trim21", "z-score": "inactive: -0.918"}, {"sequence": "GGAGCCUGUUCCAGAAUUGTT against Bcl7c", "z-score": "inactive: 0.716"}, {"sequence": "CCUAGCUCUCUAGAAUAGATT against Msn", "z-score": "inactive: 1.43"}, {"sequence": "GCCCUAUCGUUCUGAAAUATT against Galc", "z-score": "inactive: 0.295"}, {"sequence": "GGAGGAAGAAUAUGGAAAATT against Ptprz1", "z-score": "inactive: 0.204"}, {"sequence": "GGUCCUUUGAUGCUGACUGTT against Sfrp4", "z-score": "active: -2.07"}, {"sequence": "GCAGGAGAACAAAUCUAAUTT against Arhgap11a", "z-score": "inactive: -1.65"}, {"sequence": "GCCCUACCAAAAGGAUGAUTT against Cfap300", "z-score": "active: -2.02"}, {"sequence": "GCACUCACCAGUGAGUCAUTT against Cldn6", "z-score": "inactive: -0.602"}, {"sequence": "CCUGAUAAGUAUGAGUCCATT against Mag", "z-score": "inactive: -0.709"}, {"sequence": "GGAACAAAGACUUCAAAGATT against Olfr323", "z-score": "inactive: -0.249"}, {"sequence": "GGCGAUGUAAUGGAUGUUATT against Nck1", "z-score": "inactive: -0.142"}, {"sequence": "GGAGGUUUAAUAAAGGCUUTT against Gcn1", "z-score": "inactive: 1.41"}, {"sequence": "GGUGAUCUGUAGGAACACATT against 9530053A07Rik", "z-score": "inactive: -0.546"}, {"sequence": "GCAACUUGACCAGGAAUAUTT against Ddx52", "z-score": "inactive: 1.94"}, {"sequence": "GGAGAUGAGGUGAAGUGGATT against Acsm4", "z-score": "inactive: -0.213"}, {"sequence": "CCUUCUUGUGAAUUUACCUTT against Rps6kc1", "z-score": "inactive: -0.0992"}, {"sequence": "GGAGGACCAUUGAAUUAUGTT against Ccdc184", "z-score": "inactive: 0.22"}, {"sequence": "GGCUGUGGAAAUGUUUAUUTT against Cirbp", "z-score": "inactive: 0.707"}, {"sequence": "GGGUUGAUUAGUGGAGUGATT against H2-Bl", "z-score": "inactive: -0.232"}, {"sequence": "GGAAAAAAUGGAAAACUGGTT against Polr1b", "z-score": "inactive: -0.965"}, {"sequence": "GGGAUUUUCAAAGUGAGAATT against Pmaip1", "z-score": "inactive: -0.502"}, {"sequence": "CGUCUGUUUACCUCAUGAATT against Arid3a", "z-score": "inactive: -0.769"}, {"sequence": "GGUCAAUCUUUGGAGUAUUTT against Stk39", "z-score": "inactive: -0.129"}, {"sequence": "CCAGAGGUAUUGAGAGUAATT against Apobr", "z-score": "inactive: -0.651"}, {"sequence": "GGUUUGUCAGGUUCUAAAATT against Atf1", "z-score": "active: 2.34"}, {"sequence": "GGAGCUGCGCAGUUUAGAATT against Rab24", "z-score": "inactive: 1.29"}, {"sequence": "GGUGAAAGGUUCUUUAACCTT against Lman1l", "z-score": "inactive: 0.079"}, {"sequence": "GCUCAGCUCAAAUGCGGUUTT against 4931431C16Rik", "z-score": "inactive: 0.992"}, {"sequence": "CUGUGGACUUCCCUAAGAATT against Nms", "z-score": "inactive: -0.775"}, {"sequence": "GGGAGCAAAUGUAAUUUAUTT against Tbpl1", "z-score": "inactive: 0.842"}, {"sequence": "GCUAGGAUUAAUGAGGAAATT against Cul3", "z-score": "inactive: 0.318"}, {"sequence": "GGAGAAACCAAAAUGGAAATT against Ubtd2", "z-score": "inactive: -0.57"}, {"sequence": "GGAUUCAUAACAAAACGAGTT against Tmem178", "z-score": "inactive: 1.53"}, {"sequence": "GGUUUUGAAUACAAAAAGGTT against Copg2", "z-score": "inactive: -0.839"}, {"sequence": "GCACUUUGACAUUUUGGUATT against Arl4c", "z-score": "inactive: -0.0352"}, {"sequence": "GGACCAUCACACACAUUGATT against Mrap", "z-score": "inactive: 1.08"}, {"sequence": "GCUAGUGAUACAAUGUUUUTT against 9630028B13Rik", "z-score": "inactive: 0.738"}, {"sequence": "GGAGGAAGACCUGAAGAAGTT against Gck", "z-score": "inactive: -1.07"}, {"sequence": "GGCCAUAGCAUCUUGUUCUTT against Supt4a", "z-score": "inactive: 1.45"}, {"sequence": "GGAAAAGGAAACCCAGAGCTT against Tdg", "z-score": "active: -2.4"}, {"sequence": "CGCGGAGUCACUACUAGAGTT against Klhl25", "z-score": "inactive: 0.28"}, {"sequence": "CCGGGAAACCAACAAAUCATT against Rbmxl1", "z-score": "active: 2.19"}, {"sequence": "GGGAUGAAUUGGUUGUUUATT against Large1", "z-score": "inactive: 0.838"}, {"sequence": "GGAUCCACAACUCCAGCUUTT against 3300002I08Rik", "z-score": "inactive: 0.414"}, {"sequence": "GGUUUAUCUAUCCAGUUUUTT against Pigb", "z-score": "inactive: -0.464"}, {"sequence": "CCUUCCUAUGUGAUAACCGTT against Nlrp4c", "z-score": "inactive: 0.474"}, {"sequence": "CCCAGUAUCAGACUAUCAUTT against Inpp4a", "z-score": "inactive: -0.178"}, {"sequence": "GGGAUUGUCAUAGUAACAUTT against Phyhip", "z-score": "inactive: 1.11"}, {"sequence": "GCAUUUACAUUGGAUUAGGTT against Ubxn7", "z-score": "inactive: 0.35"}, {"sequence": "CCCUGGGACUUUCCUAGUGTT against Glt8d2", "z-score": "inactive: -0.537"}, {"sequence": "GGAGUAUUUCCAAACCUAUTT against Sdr9c7", "z-score": "inactive: 0.828"}, {"sequence": "GCAGUUUGCACGAGAUCGATT against Ppp1r15a", "z-score": "inactive: -0.62"}, {"sequence": "GGGAUUUGAGUUCUGGAGCTT against Fbxo44", "z-score": "inactive: -0.56"}, {"sequence": "GGAAUCAUAUAGACAGGUCTT against Smurf2", "z-score": "inactive: -1.15"}, {"sequence": "GCUGGGAGUAAAAUUGACUTT against Cenpj", "z-score": "inactive: -0.65"}, {"sequence": "CCCAGGAGUUUAGAUGUAUTT against C1qtnf6", "z-score": "inactive: -0.242"}, {"sequence": "GGAGAAAAUCACUUCUCCATT against Smarca1", "z-score": "inactive: 0.041"}, {"sequence": "GGAUGACGGUAAAAUGUUUTT against Hnrnpdl", "z-score": "inactive: 1.07"}, {"sequence": "GGAAGUGUGUACCACAUCUTT against Atg13", "z-score": "inactive: -0.211"}, {"sequence": "GGUUCUUCAAUGGCAUUGGTT against Neil1", "z-score": "inactive: -1.91"}, {"sequence": "GGAACUGGAAGAGAAUGAGTT against Sdc4", "z-score": "inactive: 0.862"}, {"sequence": "GGAGGUGUGAUCCUAGGCUTT against Slc11a1", "z-score": "inactive: -0.643"}, {"sequence": "GGUUCACCUGACCUGUUAGTT against Itgad", "z-score": "inactive: -0.332"}, {"sequence": "GGACCUAUGCGUUUCUGGUTT against Medag", "z-score": "inactive: -0.0354"}, {"sequence": "GGAUGGUACUUUUUUGGUCTT against Clnk", "z-score": "inactive: -0.233"}, {"sequence": "GGAAGUGAAGACCUUCUUCTT against St3gal4", "z-score": "inactive: -0.898"}]}]}
